Data as given in PubChem BioAssay AID1259405 (NCATS, 2018).
Assay: 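Silenced genes that increase secreted GFP made by CHO cells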 (primary screen). Cells: Chinese hamster CHO-K1 ovary cells with stable secreted eGFP expression. Reagents: single siRNA against mouse genes, 0.8 pmol siRNA per well (2 µl of 400 nM stock). Time to read-out: 3 days. Detection: 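Per-well intracellular GFP measured by laser scanning cytometry, plus viability from ATP luminescence, each relative to plate median of non-targeting control wells, in %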. Direction: GFP, % of control: higher = more GFP per well, higher productivity; viability (ATP), % of control: higher = more viable cells (more ATP). Rule for the call: 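Called active when intracellular GFP, relative to negative control, is at or above 120%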.
The whole screen tested about 50,000 reagents; below is an unselected part. Of all reagents, about 4,000 (8%) got an active call. 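Mouse siRNA library applied to hamster cells; one well for each siRNA.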 Unmarked entries are inactive. Reagent sequences are not shown.

| GFP, % of control | viability (ATP), % of control | Target gene | PubChem SID |
| --- | --- | --- | --- |
| 83.2 | 82 | Bag5 (GeneID 70369) | SID363541689 |
| 99.3 | 67.5 | Bag5 (GeneID 70369) | SID363553281 |
| 50.1 | 64.1 | Bag5 (GeneID 70369) | SID363566605 |
| 61.9 | 36.2 | Thsd7b (GeneID 210417) | SID363553782 |
| 93.9 | 76.9 | Thsd7b (GeneID 210417) | SID363561739 |
| 92.7 | 46.2 | Thsd7b (GeneID 210417) | SID363565477 |
| 160 (active) | 119 | Zfp952 (GeneID 240067) | SID363541109 |
| 77 | 79.9 | Zfp952 (GeneID 240067) | SID363555736 |
| 80.8 | 82.1 | Zfp952 (GeneID 240067) | SID363566025 |
| 46.6 | 57.2 | Fam162a (GeneID 70186) | SID363543381 |
| 41.2 | 82.7 | Fam162a (GeneID 70186) | SID363552874 |
| 65.2 | 78.9 | Fam162a (GeneID 70186) | SID363558722 |
| 79.5 | 110 | Sumo1 (GeneID 22218) | SID363556364 |
| 83.5 | 86.3 | Sumo1 (GeneID 22218) | SID363586814 |
| 105 | 113 | Sumo1 (GeneID 22218) | SID363588922 |
| 58.7 | 59.1 | Mettl17 (GeneID 52535) | SID363544789 |
| 74.6 | 62.4 | Mettl17 (GeneID 52535) | SID363551117 |
| 54.2 | 70.7 | Mettl17 (GeneID 52535) | SID363557666 |
| 78.9 | 80.1 | D1Pas1 (GeneID 110957) | SID363569768 |
| 113 | 97.4 | D1Pas1 (GeneID 110957) | SID363576808 |
| 82.5 | 89.7 | D1Pas1 (GeneID 110957) | SID363578216 |
| 46.1 | 49.2 | Uts2b (GeneID 224065) | SID363556883 |
| 106 | 84.7 | Uts2b (GeneID 224065) | SID363563787 |
| 99.4 | 91.7 | Uts2b (GeneID 224065) | SID363587333 |
| 88 | 76.1 | Vmn1r233 (GeneID 171236) | SID363544979 |
| 49.7 | 68.3 | Vmn1r233 (GeneID 171236) | SID363551307 |
| 37.4 | 51.1 | Vmn1r233 (GeneID 171236) | SID363557856 |
| 93.4 | 66 | Phpt1 (GeneID 75454) | SID363581722 |
| 51.2 | 53.1 | Phpt1 (GeneID 75454) | SID363589216 |
| 122 (active) | 77.7 | Cyp4a31 (GeneID 666168) | SID363547650 |
| 88.8 | 72.5 | Cyp4a31 (GeneID 666168) | SID363558419 |
| 87.3 | 101 | Cyp4a31 (GeneID 666168) | SID363560177 |
| 106 | 84 | Ppp1r7 (GeneID 66385) | SID363575246 |
| 81.6 | 81.6 | Ppp1r7 (GeneID 66385) | SID363580878 |
| 50 | 68.5 | Ppp1r7 (GeneID 66385) | SID363582990 |
